Results are given in words; binding and its absence hold for the method and conditions named. In cells and extracts the contact can be indirect. Some results given as binding are weak or reduced against the parent protein; the word gives no strength.
Target: T1, aRrp4 of Sulfolobus solfataricus (exosomal subunit) (S. solfataricus (endogenous in S. solfataricus P2)) (UniProt Q9UXC4)
T1 sequence: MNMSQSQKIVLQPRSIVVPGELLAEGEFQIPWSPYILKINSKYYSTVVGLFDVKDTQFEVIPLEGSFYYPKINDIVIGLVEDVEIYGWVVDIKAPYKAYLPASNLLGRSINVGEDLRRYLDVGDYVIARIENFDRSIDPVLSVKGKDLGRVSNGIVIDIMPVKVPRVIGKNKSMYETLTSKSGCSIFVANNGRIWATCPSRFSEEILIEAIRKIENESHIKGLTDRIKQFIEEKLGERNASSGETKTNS
Assay: co-IP; cleared lysate of S. solfataricus cells (with or without UV irradiation; DNase- and RNase-treated) incubated 2 h with Protein-A-Sepharose beads coupled to polyclonal aRrp4-directed antibody; beads washed 10 times with buffer containing 1 M NaCl; SDS-PAGE, transfer to nitrocellulose, Western blot with aRrp41-specific antibodies

binding: binds
B1: aRrp41 of Sulfolobus solfataricus (exosomal subunit) (protein, UniProt Q9UXC2 1-248)
chain: MREMLQVERPKLILDDGKRTDGRKPDELRSIKIELGVLKNADGSAIFEMGNTKAIAAVYGPKEMHPRHLSLPDRAVLRVRYHMTPFSTDERKNPAPSRREIELSKVIREALESAVLVELFPRTAIDVFTEILQADAGSRLVSLMAASLALADAGIPMRDLIAGVAVGKADGVIILDLNETEDMWGEADMPIAMMPSLNQVTLFQLNGSMTPDEFRQAFDLAVKGINIIYNLEREALKSKYVEFKEEGV

— publication PMC7667871
